# Experimental data as given in PubChem BioAssay AID1471 (National Center for Advancing Translational Sciences (NCATS), 2008).
# In all, about 230,000 compounds went through this assay and about 310 (0.13%) were called active. Inconclusive means that the source gave no clear call. Such entries were picked first, then a sample of the others. Calls follow the shape of the dose curve; as a rule, active = well fitted activation curve with a large enough effect; inconclusive = small, poorly fitted or top-dose-only effect; inactive = no such curve, though single readings can be large or run the other way. Potencies beside an inconclusive call are fits to weak or partial responses and may not hold up.
# Assay: qHTS Multiplex Assay to Identify Dual Action Probes in a Cell Model of Huntington: Cytoprotection (ATP); also: nearly all actives have a fitted effect of over 45% in size;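 as to cytoprotection (ATP increase): toxic huntingtin expression switched on by the ecdysone agonist tebufenozide; % of control where 0% means no effect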
# Conditions: PC12 HTT-Q103 induced, ATP luminescence, 40 h; cytoprotection (ATP increase): at 56.4 µM (top of the series) unless noted
# Method in brief: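 Huntington model: PC12 line, ecdysone-inducible HTTQ103 exon1–GFP, tebufenozide 100 nM. Test articles in a dose series. Endpoint luminescence from cellular ATP.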
# Potency is read from the fitted curve at half-maximal effect.
Compound,Potency,cytoprotection (ATP increase)
O=C(Oc1ccccc1)c1ccccc1O,"inconclusive: 39.8 µM [activator, single point]",
COc1ccc(NC(=O)CSc2ccc(C)cc2)cc1,"inconclusive: 1 µM [activator, single point]",
CN(Cc1ccco1)c1nc(-c2ccccc2C(F)(F)F)nc2ccccc12,inactive,
COc1cc(/C=N/Nc2ccccc2[N+](=O)[O-])cc(OC)c1O,,inactive: -10% [at 10 µM]
O=C(NCc1n[nH]c(=S)n1Cc1ccccc1)c1ccc(Cl)cc1Cl,"inconclusive: 2.82 µM [activator, single point]",
O=C(NCc1ccco1)C(=O)NCC(c1ccco1)N1CCOCC1 (stereo not given),"inconclusive: 3.55 µM [activator, partial curve]",
CC(C)C(Nc1ccc(S(=O)(=O)N2CCOCC2)cc1[N+](=O)[O-])C(=O)O (stereo not given),"inconclusive: 3.55 µM [activator, single point]",
CCCCCN(C(=O)CCCSc1nncs1)c1c(N)n(CCCC)c(=O)[nH]c1=O,"inconclusive: 3.16 µM [activator, single point]",
N#CC(c1ccccc1)c1cccc(Cl)n1 (stereo not given),"inconclusive: 2 µM [activator, partial curve]",
C/C(CCC12CC3CC(CC(C3)C1)C2)=N\NC(N)=S,active: 2.82 µM,
C[C@H]1/C=C\CC(=O)OC[C@H](C)C(=O)N2CCC[C@@H]2C(=O)OC1,"inconclusive: 0.1 µM [activator, full curve]",
O=C(O)[C@H]1[C@H](C(=O)O)[C@H](C(=O)O)C[C@@H]1C(=O)O,,inactive: 4.79% [at 10 µM]
COc1ccc(N=Cc2cc(Cc3ccccc3Cl)cc([N+](=O)[O-])c2O)cc1OC,active: 35.5 µM,
Cc1c(C(=O)NCc2ccccn2)oc2ccc(S(=O)(=O)N3CCOCC3)cc12,"inconclusive: 2.51 µM [activator, partial curve]",
COc1cccc(C(=O)C2=NN(C(C)=O)CC2c2ccco2)c1 (stereo not given),inactive,
O=C(CSc1cccc[n+]1[O-])Nc1ccc2c(c1)OCO2,"inconclusive: 1.12 µM [activator, single point]",
O=C(NC(=S)Nc1ccc2[nH]c(=O)[nH]c2c1)c1cncc(Br)c1,"inconclusive: 0.0063 µM [activator, full curve, poor fit]",
CCN(CC)C(=O)c1sc(NC(=O)c2cccc([N+](=O)[O-])c2)c(C#N)c1C,,inactive: -31.2% [at 10 µM]
O=C(NCC1CCCO1)C(=Cc1cccc([N+](=O)[O-])c1)C(=O)NCC1CCCO1 (stereo not given),"inconclusive: 0.562 µM [activator, single point]",
CC(=O)c1cc(C#N)c(SCC(=O)O)nc1C,,inactive: -2.5% [at 10 µM]
COc1ccccc1OC[C@H](O)COC(N)=O,"inconclusive: 0.224 µM [activator, single point]",
O=[N+]([O-])c1cccc(Cl)c1CSc1ccccn1,inactive,
FC(F)(F)c1ccc(-c2noc(-c3ccccc3)c2I)cc1,inactive,
O=C(CSc1ncnc2ccccc12)NCC(=O)c1ccccc1,"inconclusive: 25.1 µM [activator, single point]",

# A different layout for 6 compounds above.
Compound	Potency	cytoprotection (ATP increase)
O=C(Oc1ccccc1)c1ccccc1O	inconclusive: 39.8 µM [activator, single point]	
COc1ccc(N=Cc2cc(Cc3ccccc3Cl)cc([N+](=O)[O-])c2O)cc1OC	active: 35.5 µM	
Cc1c(C(=O)NCc2ccccn2)oc2ccc(S(=O)(=O)N3CCOCC3)cc12	inconclusive: 2.51 µM [activator, partial curve]	
COc1cccc(C(=O)C2=NN(C(C)=O)CC2c2ccco2)c1 (stereo not given)	inactive	
O=C(CSc1cccc[n+]1[O-])Nc1ccc2c(c1)OCO2	inconclusive: 1.12 µM [activator, single point]	
CC(=O)c1cc(C#N)c(SCC(=O)O)nc1C		inactive: -2.5% [at 10 µM]

# (cont.)

Compound,Potency,cytoprotection (ATP increase)
O=C(c1ccncc1)N1CCC2(CC1)CCN(C(c1ccccc1)c1ccccc1)CC2,"inconclusive: 5.62 µM [activator, single point]",
CCOc1ccc(C(=O)NC2CCN(CC(=O)NCc3cccs3)CC2)cc1,"inconclusive: 1 µM [activator, single point]",
COc1ccc(NC(=O)Cc2c(Cl)cccc2Cl)cn1,"inconclusive: 0.398 µM [activator, partial curve]",
Cn1c(=O)cnc2cnc(Nc3ccccc3)nc21,"inconclusive: 25.1 µM [activator, partial curve]",
Nc1[nH]c(=S)nc2nc(-c3ccccc3)c(-c3ccccc3)nc12,"inconclusive: 12.6 µM [activator, single point]",
CC(=O)Nc1ccc(/C=N/NC(N)=S)cc1,"inconclusive: 0.794 µM [activator, full curve]",
CCN(CC)CCC(C)OC(c1ccccc1)c1ccccc1 (stereo not given),"inconclusive: 35.5 µM [activator, single point]",
CCOC(=O)c1sc2nc(N3CCOCC3)c3c(c2c1N)CCN(Cc1ccccc1)C3,"inconclusive: 5.01 µM [activator, single point]",
COc1cc(C(=O)N[C@H](C(=O)Nc2nnc(C3CC3)s2)C(C)C)cc(OC)c1OC,,inactive: 6.57% [at 10 µM]
COc1ccc(CNC(=O)/C=C/c2ccco2)cc1OC,"inconclusive: 8.91 µM [activator, partial curve]",
COc1cc(SC)ccc1C(=O)NC(C)C,active: 12.6 µM,
COc1ccc(C(C)=O)cc1CN1C(=O)NC2(CCCCC2C)C1=O (stereo not given),inactive,
CC(O)COc1ccccc1 (stereo not given),"inconclusive: 3.16 µM [activator, full curve]",
O=c1[nH]c(CN2CCN(Cc3ccccc3)CC2)nc2scc(-c3ccccc3)c12,,inactive: -4.48% [at 10 µM]
Cc1onc(-c2ccccc2Cl)c1C(=O)NCc1ccc2c(c1)cc(C)n2C,"inconclusive: 5.62 µM [activator, single point]",
CCCC(=O)OCC(=O)NCc1ccc(Cl)cc1,inactive,
C=CCn1c(=O)/c(=C2/Sc3ccccc3N2CC)s/c1=C1/C(=O)NN=C1C,,inactive: -4.57% [at 10 µM]
O=C(N/N=C/c1cccc(NC(=O)c2ccc(Cl)cc2)c1)c1cccc(O)c1,,inactive: -14.5% [at 10 µM]
O=C(CCc1ccc(S(=O)(=O)N2CCOCC2)cc1)Nc1nccs1,"inconclusive: 6.31 µM [activator, single point]",
Cc1cccc(NC(=S)NC23CN4CN(CN(C4)C2)C3)c1,"inconclusive: 0.0079 µM [activator, full curve, poor fit]",
CC(=C/C=C/C(C)=C/C=C/C=C(C)/C=C/C=C(C)/C=C/C(=O)O)/C=C/C(=O)O,inactive,
Cc1ccc(C(=O)NC(NC(=O)c2ccc(C)cc2)c2cccc([N+](=O)[O-])c2)cc1,"inconclusive: 1 µM [activator, single point]",
NC(=O)CS(=O)(=O)c1nc2ccccc2n1CC(=O)N1CCCCC1,"inconclusive: 25.1 µM [activator, single point]",
CC(C)(C)C1CCC(=NNC(=O)C(=O)NCc2ccco2)CC1 (stereo not given),inactive,

Compound,Potency,cytoprotection (ATP increase)
Cc1ccc(S(=O)(=O)N(CCCO)CC(O)CON=C2c3ccccc3-c3ccccc32)cc1 (stereo not given),,inactive: -1.06% [at 10 µM]
COCCN(C(=S)Nc1cccc(OC)c1)C(C)c1cccs1 (stereo not given),,inactive: 11.3% [at 10 µM]
C[C@@H](N)C1CCC(C(=O)Nc2ccncc2)CC1 (stereo not given in full),"inconclusive: 15.8 µM [activator, partial curve]",
O=[N+]([O-])c1ccc(Sc2nc3ccccc3o2)c([N+](=O)[O-])c1,inactive,
Cn1cc([N+](=O)[O-])c(C(=O)Nc2ccc(-c3nc4ccccc4o3)cc2)n1,"inconclusive: 3.55 µM [activator, single point]",
CCNc1ncc2nc(-c3cn(C)c4ccccc34)c(=O)n(Cc3ccc(F)cc3)c2n1,active: 25.1 µM,
CC(C)(C)c1nc2scc(-c3cccs3)c2c(=O)o1,"inconclusive: 35.5 µM [activator, single point]",
O=C1CC(C(=O)N(c2ccc(F)cc2)C(C(=O)NC2CCCC2)c2ccccn2)CS1 (stereo not given),"inconclusive: 4.47 µM [activator, single point]",
CCOc1ccc(NC(=O)N2CCC(NC(=O)C(Cc3ccc(OC)c(OC)c3)NC(C)=O)CC2)cc1 (stereo not given),"inconclusive: 1 µM [activator, partial curve]",
Cc1ccc(OC(C)C(=O)N2CCc3ccccc32)cc1 (stereo not given),"inconclusive: 5.62 µM [activator, single point]",
O=C(/C=C/c1ccccc1Cl)Nn1cnc2ccccc2c1=O,"inconclusive: 5.62 µM [activator, single point]",
CC(=O)N1CCC2(CC1)C/C(=N\NC(=S)Nc1ccccc1F)c1cc(O)ccc1O2,"inconclusive: 0.112 µM [activator, full curve, poor fit]",
NS(=O)(=O)c1ccc(CCNC(=O)CSc2ccc3ccccc3c2)cc1,"inconclusive: 5.62 µM [activator, single point]",
C=CCSc1nnc2c(n1)OC=Nc1ccc(Br)cc1-2,"inconclusive: 35.5 µM [activator, single point]",
CS(=O)(=O)c1nc(-c2ccccc2)cc(C(F)(F)F)n1,"inconclusive: 5.62 µM [activator, single point]",
COC(=O)C1=NOC2(C=C(Br)C(OC)=C(Br)C2=O)C1 (stereo not given),"inconclusive: 5.62 µM [activator, partial curve, poor fit]",
Nc1c(CC(=O)O)cccc1C(=O)c1ccc(Br)cc1,"inconclusive: 35.5 µM [activator, single point]",
COc1ccc(CN2CCN(C(=O)c3ccc(-c4ccccc4)cc3)CC2)c(OC)c1OC,inactive,
O=C(CCSc1ccccn1)c1ccccc1,"inconclusive: 0.112 µM [activator, partial curve, poor fit]",
c1ccc(Cc2nnc3sc(-c4cccnc4)nn23)cc1,inactive,
Cc1ccc(N=C2NC(=O)/C(=C/c3cccn3C)S2)cc1C,,inactive: 5.38% [at 10 µM]
Cn1cccc1C(=O)N1CCC2(CC1)CCN(c1ccncc1)CC2,"inconclusive: 15.8 µM [activator, partial curve]",
